PubChem BioAssay AID1259308 – NCATS | 2017

Purpose: 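Genes whose loss raises luciferase production in HEK293 cells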 (primary screen)
Cells: human HEK293 embryonic kidney cells stably expressing firefly luciferase (HEK-CMV-Luc2-Hygro)
Reagents: single siRNA against human genes, 0.8 pmol siRNA per well
Duration: 72 h
Measurement: 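Reporter luminescence and viable-cell signal on separate replicate plates, given as percent of non-targeting control and median/MAD z-scores, plus per-cell luciferase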
Direction: total luciferase, z-score and total luciferase, % of control: higher = more reporter protein produced; luciferase per cell, z-score: higher = more reporter output per viable cell; viable cells, % of control: higher = more viable cells
Active means: 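An siRNA counts as active if its total luciferase robust z-score exceeds 3; genes with two or more such siRNAs out of three were retested with fresh siRNAs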
Calls: active = raised luciferase; inactive = no rise
This is a random part of about 59,000 deposited reagents. About 1,510 of them (2.6%) were called active. 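Calls use total luciferase alone and ignore viability, so some active siRNAs may act by altering cell number.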 Entries without a mark were called inactive. Reagents against one gene are numbered here.

gene | reagent no. | total luciferase, z-score | total luciferase, % of control | luciferase per cell, z-score | viable cells, % of control
CHPF2 (GeneID 54480) | 1 | -0.836 | 65.3 | -0.908 | 92.6
CHPF2 (GeneID 54480) | 2 | 0.617 | 94.2 | 0.2 | 99.8
CHPF2 (GeneID 54480) | 3 | 2.76 | 137 | 2.51 | 79
RGS20 (GeneID 8601) | 1 | 2.32 | 128 | 1.6 | 94
RGS20 (GeneID 8601) | 2 | -0.334 | 75.2 | -0.334 | 91.8
RGS20 (GeneID 8601) | 3 | 0.47 | 91.2 | 0.0453 | 101
CKB (GeneID 1152) | 1 | -0.373 | 74.5 | -0.53 | 95.7
CKB (GeneID 1152) | 2 | 0.243 | 86.7 | -0.583 | 113
CKB (GeneID 1152) | 3 | -0.606 | 69.8 | -0.719 | 94.3
CYB561 (GeneID 1534) | 1 | 1.65 | 115 | 2.48 | 66.7
CYB561 (GeneID 1534) | 2 | -1.13 | 59.4 | -1.2 | 91.1
CYB561 (GeneID 1534) | 3 | -0.669 | 68.6 | 0.193 | 72.8
NECAP1 (GeneID 25977) | 1 | -0.451 | 72.9 | -0.573 | 94.8
NECAP1 (GeneID 25977) | 2 | 0.253 | 86.9 | 0.27 | 90.5
NECAP1 (GeneID 25977) | 3 | -0.594 | 70.1 | -0.615 | 92.1
CRTC3 (GeneID 64784) | 1 | 1.97 | 121 | 1.87 | 82.7
CRTC3 (GeneID 64784) | 2 | -0.687 | 68.2 | -1.04 | 100
CRTC3 (GeneID 64784) | 3 | 0.801 | 97.8 | 0.236 | 103
CYP4F8 (GeneID 11283) | 1 | -0.554 | 70.9 | -0.91 | 101
CYP4F8 (GeneID 11283) | 2 | 0.533 | 92.5 | 0.718 | 85.5
CYP4F8 (GeneID 11283) | 3 | 0.34 | 88.7 | -0.508 | 113
GSTM1 (GeneID 2944) | 1 | -0.379 | 74.4 | -0.502 | 94.8
GSTM1 (GeneID 2944) | 2 | -1.31 | 55.8 | -1.5 | 92.6
GSTM1 (GeneID 2944) | 3 | -1 | 61.9 | -0.914 | 88
NDOR1 (GeneID 27158) | 1 | 0.788 | 97.6 | 0.529 | 94.8
NDOR1 (GeneID 27158) | 2 | 2.57 | 133 | 2.45 | 77.9
NDOR1 (GeneID 27158) | 3 | 0.0794 | 83.5 | 0.775 | 76
NDOR1 (GeneID 27158) | 4 | 0.181 | 85.5 | -0.159 | 99.6
NDOR1 (GeneID 27158) | 5 | -1.49 | 52.3 | -0.72 | 70.6
NDOR1 (GeneID 27158) | 6 | 0.331 | 88.5 | 0.0784 | 96.8
SLC25A33 (GeneID 84275) | 1 | -0.449 | 73 | 0.734 | 67.2
SLC25A33 (GeneID 84275) | 2 | -0.401 | 73.9 | -0.474 | 93.6
SLC25A33 (GeneID 84275) | 3 | -0.0728 | 80.4 | 0.0158 | 89.5
C11orf96 (GeneID 387763) | 1 | 1.41 | 110 | 1.91 | 74.3
C11orf96 (GeneID 387763) | 2 | -1.11 | 59.8 | -1.29 | 93.9
C11orf96 (GeneID 387763) | 3 | -1.35 | 55.1 | -0.638 | 72.9
EGFLAM (GeneID 133584) | 1 | -0.477 | 72.4 | 0.0807 | 79.2
EGFLAM (GeneID 133584) | 2 | -1.34 | 55.3 | -1.37 | 88.7
EGFLAM (GeneID 133584) | 3 | -0.855 | 64.9 | -1.39 | 105
ANKRD20A5P (GeneID 440482) | 1 | -0.0282 | 81.3 | 0.352 | 82.8
ANKRD20A5P (GeneID 440482) | 2 | 0.222 | 86.3 | -0.0989 | 99
ANKRD20A5P (GeneID 440482) | 3 | -0.468 | 72.6 | -1.2 | 111
OSBP2 (GeneID 23762) | 1 | 3.42 (active) | 150 | 3.15 | 73
OSBP2 (GeneID 23762) | 2 | 0.75 | 96.8 | 0.559 | 93.3
OSBP2 (GeneID 23762) | 3 | 0.784 | 97.5 | 0.966 | 84.5
ZNF860 (GeneID 344787) | 1 | -1.14 | 59.1 | -0.772 | 81
ZNF860 (GeneID 344787) | 2 | 1.38 | 109 | 2.71 | 59.8
ZNF860 (GeneID 344787) | 3 | -0.503 | 71.9 | 0.419 | 71.9
ZNF860 (GeneID 344787) | 4 | -2.8 | 26.1 | -3.88 | 81.1
ZNF860 (GeneID 344787) | 5 | -0.111 | 79.7 | -0.343 | 97.4
ZNF860 (GeneID 344787) | 6 | -0.355 | 74.8 | 0.444 | 74.4
AGTRAP (GeneID 57085) | 1 | 1.56 | 113 | 1.09 | 94.6
AGTRAP (GeneID 57085) | 2 | -1.71 | 47.8 | -1.26 | 74.6
AGTRAP (GeneID 57085) | 3 | -0.126 | 79.4 | -0.374 | 97.9
KIF5C (GeneID 3800) | 1 | 1.93 | 120 | 2.37 | 72
KIF5C (GeneID 3800) | 2 | 0.262 | 87.1 | -0.0209 | 97.9
KIF5C (GeneID 3800) | 3 | 0.544 | 92.7 | 0.575 | 89
ZNF180 (GeneID 7733) | 1 | 0.678 | 95.4 | 0.626 | 90.4
ZNF180 (GeneID 7733) | 2 | -0.83 | 65.4 | -1.2 | 100
ZNF180 (GeneID 7733) | 3 | -0.207 | 77.8 | -0.703 | 105
MAP9 (GeneID 79884) | 1 | 1.02 | 102 | 0.848 | 91.3
MAP9 (GeneID 79884) | 2 | 0.842 | 98.6 | 1.09 | 82.7
MAP9 (GeneID 79884) | 3 | 0.0748 | 83.4 | 0.221 | 87.9
DDHD2 (GeneID 23259) | 1 | 1.15 | 105 | 1.88 | 71.4
DDHD2 (GeneID 23259) | 2 | 0.669 | 95.2 | 0.545 | 92.2
DDHD2 (GeneID 23259) | 3 | -0.38 | 74.3 | -1.17 | 113
ANKRD34B (GeneID 340120) | 1 | 3.61 (active) | 154 | 2.91 | 79.8
ANKRD34B (GeneID 340120) | 2 | -0.695 | 68.1 | -0.597 | 89
ANKRD34B (GeneID 340120) | 3 | 0.0518 | 82.9 | -0.219 | 98.2
ACSS2 (GeneID 55902) | 1 | -0.515 | 71.6 | -0.531 | 92.1
ACSS2 (GeneID 55902) | 2 | 1.08 | 103 | 1.08 | 86.9
ACSS2 (GeneID 55902) | 3 | -0.783 | 66.3 | -0.976 | 95.8
SRPK3 (GeneID 26576) | 1 | 0.0825 | 83.5 | 0.499 | 81.8
SRPK3 (GeneID 26576) | 2 | -1.81 | 45.9 | -2.28 | 93.4
SRPK3 (GeneID 26576) | 3 | -0.122 | 79.5 | 0.352 | 80.9

10 entries from above, reduced to “total luciferase, z-score”:
C11orf96 (GeneID 387763) #2 = -1.11
C11orf96 (GeneID 387763) #3 = -1.35
EGFLAM (GeneID 133584) #1 = -0.477
EGFLAM (GeneID 133584) #2 = -1.34
EGFLAM (GeneID 133584) #3 = -0.855
ANKRD20A5P (GeneID 440482) #1 = -0.0282
ANKRD20A5P (GeneID 440482) #2 = 0.222
ANKRD20A5P (GeneID 440482) #3 = -0.468
OSBP2 (GeneID 23762) #1 = 3.42 (active)
OSBP2 (GeneID 23762) #2 = 0.75
